PubChem BioAssay AID504784 – Drosophila RNAi Screening Center – 2011
In all, the deposit lists about 17,000 reagents; shown is a random part of those that have a named target and a result. 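Each column is one replicate's B-score; the combined score over replicates was not deposited, so single values may mislead.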 Reagents against one gene are numbered here. Names joined by + are all predicted targets of the reagent.

Test: 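Genome-wide knock-down for genes giving too much or too little stored lipid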 (primary screen)
System: Drosophila Kc167 embryonic cells
Knock-down reagent: long dsRNA against Drosophila genes, about 250 ng dsRNA per well
Time to read-out: 4 days
Conditions: cells fed 400 µM oleic acid bound to BSA
Read-out: 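Microscope images give a droplet-to-nucleus area ratio, taken as log and converted to a screen-wide B-score; higher values mean greater lipid storage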
Reading the numbers: droplet/nuclear area B-score: higher = more stored lipid (overstorage)

predicted target | reagent no. | droplet/nuclear area B-score, replicate 1 | droplet/nuclear area B-score, replicate 2 | droplet/nuclear area B-score, replicate 3
qjt (quijote) | 1 | -0.757 | -1.41 | –
CG17600 | 1 | -1.87 | 0.602 | –
CG17600 | 2 | -1.2 | -0.664 | –
CG32645 | 1 | -0.735 | -0.00446 | -0.411
CG32645 | 2 | 0.584 | -2.11 | 1.15
plum | 1 | – | -0.0199 | –
fln (flightin) | 1 | 0 | -0.234 | 0.398
CG8671 | 1 | 0.65 | 0.4 | –
CG8671 | 2 | 0.562 | 1.18 | –
Oli (Olig family) | 1 | -0.59 | -0.682 | –
CG6836 | 1 | -0.901 | 0.668 | 0.0125

In a second layout: results already given
predicted target	reagent no.	droplet/nuclear area B-score, replicate 1	droplet/nuclear area B-score, replicate 2	droplet/nuclear area B-score, replicate 3
CG32645	1	-0.735	-0.00446	-0.411
CG32645	2	0.584	-2.11	1.15

Additional results follow:
predicted target | reagent no. | droplet/nuclear area B-score, replicate 1 | droplet/nuclear area B-score, replicate 2 | droplet/nuclear area B-score, replicate 3
l(2)37Bb (lethal (2) 37Bb) | 1 | 1.46 | -1.15 | -0.993
kl-3 (retired record) | 1 | -1.53 | -1.1 | –
kl-3 (retired record) | 2 | -0.53 | 0.338 | –
kl-3 (retired record) | 3 | 1.16 | -0.602 | –
l(3)62Be (retired record) | 1 | -0.0813 | -0.173 | –
par-1 | 1 | 1.36 | 0.153 | –
par-1 | 2 | -0.516 | -0.00623 | –
par-1 | 3 | 2.66 | – | –
par-1 | 4 | 0.0489 | 0.568 | –
par-1 | 5 | -1.12 | -1.74 | –
Pbp45 (PSEA-binding protein 45kD) | 1 | 1.09 | -0.0994 | –
disco (disconnected) | 1 | 1.97 | 3.67 | –
CG13082 | 1 | 0.875 | 1.26 | –
DCX-EMAP | 1 | 1.16 | -0.102 | –
DCX-EMAP | 2 | -0.818 | 4.02 | –
Ypel (Yippee-like) | 1 | -4.06 | 0.577 | -1.49
gdl-ORF39 + gdl | 1 | -1.18 | -1.45 | –
janA (janus A) | 1 | -1.9 | 0.441 | –
CG9522 | 1 | 2.09 | 0.579 | –
CG14327 | 1 | -0.0687 | 0.103 | –
CG10474 | 1 | 1.36 | 0.00623 | –
Chro (Chromator) | 1 | -0.0223 | 0.614 | 0.142
Ppox (Protoporphyrinogen oxidase) | 1 | -0.132 | -0.0395 | –
